The values below come from PMC5548489.

Protein sequences, listed by entry. Tags and fused reporters are not part of them.
UniProt P03372: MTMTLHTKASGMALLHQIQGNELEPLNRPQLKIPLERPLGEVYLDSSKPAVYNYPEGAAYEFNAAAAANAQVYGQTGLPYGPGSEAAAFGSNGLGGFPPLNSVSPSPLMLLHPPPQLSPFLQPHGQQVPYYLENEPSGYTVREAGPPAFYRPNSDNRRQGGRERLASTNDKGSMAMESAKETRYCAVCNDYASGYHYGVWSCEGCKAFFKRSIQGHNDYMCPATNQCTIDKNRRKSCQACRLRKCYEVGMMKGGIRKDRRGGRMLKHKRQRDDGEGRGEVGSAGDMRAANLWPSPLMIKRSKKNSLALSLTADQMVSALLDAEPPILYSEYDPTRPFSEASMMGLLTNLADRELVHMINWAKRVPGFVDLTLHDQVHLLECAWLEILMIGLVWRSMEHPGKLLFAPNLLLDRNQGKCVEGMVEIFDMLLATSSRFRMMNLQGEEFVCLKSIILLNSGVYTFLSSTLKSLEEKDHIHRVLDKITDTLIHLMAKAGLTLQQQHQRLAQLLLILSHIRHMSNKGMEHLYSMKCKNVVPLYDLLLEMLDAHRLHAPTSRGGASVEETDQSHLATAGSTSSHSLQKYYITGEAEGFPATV

The labels stand for the following.
B1: STXBP2 (protein, UniProt Q15833 1-593)
chain: MAPSGLKAVVGEKILSGVIRSVKKDGEWKVLIMDHPSMRILSSCCKMSDILAEGITIVEDINKRREPIPSLEAIYLLSPTEKSVQALIKDFQGTPTFTYKAAHIFFTDTCPEPLFSELGRSRLAKVVKTLKEIHLAFLPYEAQVFSLDAPHSTYNLYCPFRAEERTRQLEVLAQQIATLCATLQEYPAIRYRKGPEDTAQLAHAVLAKLNAFKADTPSLGEGPEKTRSQLLIMDRAADPVSPLLHELTFQAMAYDLLDIEQDTYRYETTGLSEAREKAVLLDEDDDLWVELRHMHIADVSKKVTELLRTFCESKRLTTDKANIKDLSQILKKMPQYQKELNKYSTHLHLADDCMKHFKGSVEKLCSVEQDLAMGSDAEGEKIKDSMKLIVPVLLDAAVPAYDKIRVLLLYILLRNGVSEENLAKLIQHANVQAHSSLIRNLEQLGGTVTNPGGSGTSSRLEPRERMEPTYQLSRWTPVIKDVMEDAVEDRLDRNLWPFVSDPAPTASSQAAVSARFGHWHKNKAGIEARAGPRLIVYVMGGVAMSEMRAAYEVTRATEGKWEVLIGSSHILTPTRFLDDLKALDKKLEDIALP
B2: VPS11 (protein, UniProt Q9H270 1-941)
chain: MAAYLQWRRFVFFDKELVKEPLSNDGAAPGATPASGSAASKFLCLPPGITVCDSGRGSLVFGDMEGQIWFLPRSLQLTGFQAYKLRVTHLYQLKQHNILASVGEDEEGINPLVKIWNLEKRDGGNPLCTRIFPAIPGTEPTVVSCLTVHENLNFMAIGFTDGSVTLNKGDITRDRHSKTQILHKGNYPVTGLAFRQAGKTTHLFVVTTENVQSYIVSGKDYPRVELDTHGCGLRCSALSDPSQDLQFIVAGDECVYLYQPDERGPCFAFEGHKLIAHWFRGYLIIVSRDRKVSPKSEFTSRDSQSSDKQILNIYDLCNKFIAYSTVFEDVVDVLAEWGSLYVLTRDGRVHALQEKDTQTKLEMLFKKNLFEMAINLAKSQHLDSDGLAQIFMQYGDHLYSKGNHDGAVQQYIRTIGKLEPSYVIRKFLDAQRIHNLTAYLQTLHRQSLANADHTTLLLNCYTKLKDSSKLEEFIKKKSESEVHFDVETAIKVLRQAGYYSHALYLAENHAHHEWYLKIQLEDIKNYQEALRYIGKLPFEQAESNMKRYGKILMHHIPEQTTQLLKGLCTDYRPSLEGRSDREAPGCRANSEEFIPIFANNPRELKAFLEHMSEVQPDSPQGIYDTLLELRLQNWAHEKDPQVKEKLHAEAISLLKSGRFCDVFDKALVLCQMHDFQDGVLYLYEQGKLFQQIMHYHMQHEQYRQVISVCERHGEQDPSLWEQALSYFARKEEDCKEYVAAVLKHIENKNLMPPLLVVQTLAHNSTATLSVIRDYLVQKLQKQSQQIAQDELRVRRYREETTRIRQEIQELKASPKIFQKTKCSICNSALELPSVHFLCGHSFHQHCFESYSESDADCPTCLPENRKVMDMIRAQEQKRDLHDQFQHQLKCSNDSFSVIADYFGRGVFNKLTLLTDPPTARLTSSLEAGLQRDLLMHSRRGT
B3: SEC24B (protein, UniProt O95487 1-1268)
chain: MSAPAGSSHPAASARIPPKFGGAAVSGAAAPAGPGAGPAPHQQNGPAQNQMQVPSGYGLHHQNYIAPSGHYSQGPGKMTSLPLDTQCGDYYSALYTVPTQNVTPNTVNQQPGAQQLYSRGPPAPHIVGSTLGSFQGAASSASHLHTSASQPYSSFVNHYNSPAMYSASSSVASQGFPSTCGHYAMSTVSNAAYPSVSYPSLPAGDTYGQMFTSQNAPTVRPVKDNSFSGQNTAISHPSPLPPLPSQQHHQQQSLSGYSTLTWSSPGLPSTQDNLIRNHTGSLAVANNNPTITVADSLSCPVMQNVQPPKSSPVVSTVLSGSSGSSSTRTPPTANHPVEPVTSVTQPSELLQQKGVQYGEYVNNQASSAPTPLSSTSDDEEEEEEDEEAGVDSSSTTSSASPMPNSYDALEGGSYPDMLSSSASSPAPDPAPEPDPASAPAPASAPAPVVPQPSKMAKPFGYGYPTLQPGYQNATAPLISGVQPSNPVYSGFQQYPQQYPGVNQLSSSIGGLSLQSSPQPESLRPVNLTQERNILPMTPVWAPVPNLNADLKKLNCSPDSFRCTLTNIPQTQALLNKAKLPLGLLLHPFRDLTQLPVITSNTIVRCRSCRTYINPFVSFIDQRRWKCNLCYRVNDVPEEFMYNPLTRSYGEPHKRPEVQNSTVEFIASSDYMLRPPQPAVYLFVLDVSHNAVEAGYLTILCQSLLENLDKLPGDSRTRIGFMTFDSTIHFYNLQEGLSQPQMLIVSDIDDVFLPTPDSLLVNLYESKELIKDLLNALPNMFTNTRETHSALGPALQAAFKLMSPTGGRVSVFQTQLPSLGAGLLQSREDPNQRSSTKVVQHLGPATDFYKKLALDCSGQQTAVDLFLLSSQYSDLASLACMSKYSAGCIYYYPSFHYTHNPSQAEKLQKDLKRYLTRKIGFEAVMRIRCTKGLSMHTFHGNFFVRSTDLLSLANINPDAGFAVQLSIEESLTDTSLVCFQTALLYTSSKGERRIRVHTLCLPVVSSLADVYAGVDVQAAICLLANMAVDRSVSSSLSDARDALVNAVVDSLSAYGSTVSNLQHSALMAPSSLKLFPLYVLALLKQKAFRTGTSTRLDDRVYAMCQIKSQPLVHLMKMIHPNLYRIDRLTDEGAVHVNDRIVPQPPLQKLSAEKLTREGAFLMDCGSVFYIWVGKGCDNNFIEDVLGYTNFASIPQKMTHLPELDTLSSERARSFITWLRDSRPLSPILHIVKDESPAKAEFFQHLIEDRTEAAFSYYEFLLHVQQQICK
B4: NUP93 (protein, UniProt Q8N1F7 1-819)
chain: MDTEGFGELLQQAEQLAAETEGISELPHVERNLQEIQQAGERLRSRTLTRTSQETADVKASVLLGSRGLDISHISQRLESLSAATTFEPLEPVKDTDIQGFLKNEKDNALLSAIEESRKRTFGMAEEYHRESMLVEWEQVKQRILHTLLASGEDALDFTQESEPSYISDVGPPGRSSLDNIEMAYARQIYIYNEKIVNGHLQPNLVDLCASVAELDDKSISDMWTMVKQMTDVLLTPATDALKNRSSVEVRMEFVRQALAYLEQSYKNYTLVTVFGNLHQAQLGGVPGTYQLVRSFLNIKLPAPLPGLQDGEVEGHPVWALIYYCMRCGDLLAASQVVNRAQHQLGEFKTWFQEYMNSKDRRLSPATENKLRLHYRRALRNNTDPYKRAVYCIIGRCDVTDNQSEVADKTEDYLWLKLNQVCFDDDGTSSPQDRLTLSQFQKQLLEDYGESHFTVNQQPFLYFQVLFLTAQFEAAVAFLFRMERLRCHAVHVALVLFELKLLLKSSGQSAQLLSHEPGDPPCLRRLNFVRLLMLYTRKFESTDPREALQYFYFLRDEKDSQGENMFLRCVSELVIESREFDMILGKLENDGSRKPGVIDKFTSDTKPIINKVASVAENKGLFEEAAKLYDLAKNADKVLELMNKLLSPVVPQISAPQSNKERLKNMALSIAERYRAQGISANKFVDSTFYLLLDLITFFDEYHSGHIDRAFDIIERLKLVPLNQESVEERVAAFRNFSDEIRHNLSEVLLATMNILFTQFKRLKGTSPSSSSRPQRVIEDRDSQLRSQARTLITFAGMIPYRTSGDTNARLVQMEVLMN
B5: VPS18 (protein, UniProt Q9P253 1-973)
chain: MASILDEYENSLSRSAVLQPGCPSVGIPHSGYVNAQLEKEVPIFTKQRIDFTPSERITSLVVSSNQLCMSLGKDTLLRIDLGKANEPNHVELGRKDDAKVHKMFLDHTGSHLLIALSSTEVLYVNRNGQKVRPLARWKGQLVESVGWNKALGTESSTGPILVGTAQGHIFEAELSASEGGLFGPAPDLYFRPLYVLNEEGGPAPVCSLEAERGPDGRSFVIATTRQRLFQFIGRAAEGAEAQGFSGLFAAYTDHPPPFREFPSNLGYSELAFYTPKLRSAPRAFAWMMGDGVLYGALDCGRPDSLLSEERVWEYPEGVGPGASPPLAIVLTQFHFLLLLADRVEAVCTLTGQVVLRDHFLEKFGPLKHMVKDSSTGQLWAYTERAVFRYHVQREARDVWRTYLDMNRFDLAKEYCRERPDCLDTVLAREADFCFRQRRYLESARCYALTQSYFEEIALKFLEARQEEALAEFLQRKLASLKPAERTQATLLTTWLTELYLSRLGALQGDPEALTLYRETKECFRTFLSSPRHKEWLFASRASIHELLASHGDTEHMVYFAVIMQDYERVVAYHCQHEAYEEALAVLARHRDPQLFYKFSPILIRHIPRQLVDAWIEMGSRLDARQLIPALVNYSQGGEVQQVSQAIRYMEFCVNVLGETEQAIHNYLLSLYARGRPDSLLAYLEQAGASPHRVHYDLKYALRLCAEHGHHRACVHVYKVLELYEEAVDLALQVDVDLAKQCADLPEEDEELRKKLWLKIARHVVQEEEDVQTAMACLASCPLLKIEDVLPFFPDFVTIDHFKEAICSSLKAYNHHIQELQREMEEATASAQRIRRDLQELRGRYGTVEPQDKCATCDFPLLNRPFYLFLCGHMFHADCLLQAVRPGLPAYKQARLEELQRKLGAAPPPAKGSARAKEAEGGAATAGPSREQLKADLDELVAAECVYCGELMIRSIDRPFIDPQRYEEEQLSWL
B6: SRP72 (protein, UniProt O76094 1-671)
chain: MASGGSGGVSVPALWSEVNRYGQNGDFTRALKTVNKILQINKDDVTALHCKVVCLIQNGSFKEALNVINTHTKVLANNSLSFEKAYCEYRLNRIENALKTIESANQQTDKLKELYGQVLYRLERYDECLAVYRDLVRNSQDDYDEERKTNLSAVVAAQSNWEKVVPENLGLQEGTHELCYNTACALIGQGQLNQAMKILQKAEDLCRRSLSEDTDGTEEDPQAELAIIHGQMAYILQLQGRTEEALQLYNQIIKLKPTDVGLLAVIANNIITINKDQNVFDSKKKVKLTNAEGVEFKLSKKQLQAIEFNKALLAMYTNQAEQCRKISASLQSQSPEHLLPVLIQAAQLCREKQHTKAIELLQEFSDQHPENAAEIKLTMAQLKISQGNISKACLILRSIEELKHKPGMVSALVTMYSHEEDIDSAIEVFTQAIQWYQNHQPKSPAHLSLIREAANFKLKYGRKKEAISDLQQLWKQNPKDIHTLAQLISAYSLVDPEKAKALSKHLPSSDSMSLKVDVEALENSAGATYIRKKGGKVTGDSQPKEQGQGDLKKKKKKKKGKLPKNYDPKVTPDPERWLPMRERSYYRGRKKGKKKDQIGKGTQGATAGASSELDASKTVSSPPTSPRPGSAATVSASTSNIIPPRHQKPAGAPATKKKQQQKKKKGGKGGW

Results are given in words; binding and its absence hold for the method and conditions named. In cells and extracts the contact can be indirect. A yes stands for co-enrichment or nearness to the bait. Other partners may have been found.

The target in the assay is estrogen receptor alpha (ER) (human (endogenous in MCF-7 and ZR-75)) (UniProt P03372). As to the kind of experiment: affinity purification with mass spectrometry; anti-ER antibody (Santa Cruz sc-8002) on Dynabeads Protein G, 1.5 mg lysate of MCF-7 or ZR-75 cells overnight at 4°C; cells starved, vehicle or 10 µM ERX-11 for 2 hr, then 10 nM E2 for 2 hr; the named proteins are ER binders whose co-precipitation was disrupted by ERX-11.
For the molecule B1, the binding result is on record as “binds”.

Consider B2, for which the binding result is “binds”. B3: the binding entry was “binds”. Turning to B4, the binding result is “binds”.

Take B5: the binding result is “binds”.

For B6, the binding entry was “binds”.
